Experimental data from article PMC6054531.
No constants are given. Whether binding was seen depends on the method and setting. Binding seen in cells or lysates may run through a third protein. Where a sequence is shown, tags or fusion partners need not be part of it.

The chains behind the UniProt entries cited, without tags or fusion partners. Where a name states a change or a piece, a line headed by the entry shows the natural chain unless it says otherwise. A line that says so, or that is headed by a name, gives the form on record, which may keep a tag or linker.
human F508del-CFTR (P13569, form named): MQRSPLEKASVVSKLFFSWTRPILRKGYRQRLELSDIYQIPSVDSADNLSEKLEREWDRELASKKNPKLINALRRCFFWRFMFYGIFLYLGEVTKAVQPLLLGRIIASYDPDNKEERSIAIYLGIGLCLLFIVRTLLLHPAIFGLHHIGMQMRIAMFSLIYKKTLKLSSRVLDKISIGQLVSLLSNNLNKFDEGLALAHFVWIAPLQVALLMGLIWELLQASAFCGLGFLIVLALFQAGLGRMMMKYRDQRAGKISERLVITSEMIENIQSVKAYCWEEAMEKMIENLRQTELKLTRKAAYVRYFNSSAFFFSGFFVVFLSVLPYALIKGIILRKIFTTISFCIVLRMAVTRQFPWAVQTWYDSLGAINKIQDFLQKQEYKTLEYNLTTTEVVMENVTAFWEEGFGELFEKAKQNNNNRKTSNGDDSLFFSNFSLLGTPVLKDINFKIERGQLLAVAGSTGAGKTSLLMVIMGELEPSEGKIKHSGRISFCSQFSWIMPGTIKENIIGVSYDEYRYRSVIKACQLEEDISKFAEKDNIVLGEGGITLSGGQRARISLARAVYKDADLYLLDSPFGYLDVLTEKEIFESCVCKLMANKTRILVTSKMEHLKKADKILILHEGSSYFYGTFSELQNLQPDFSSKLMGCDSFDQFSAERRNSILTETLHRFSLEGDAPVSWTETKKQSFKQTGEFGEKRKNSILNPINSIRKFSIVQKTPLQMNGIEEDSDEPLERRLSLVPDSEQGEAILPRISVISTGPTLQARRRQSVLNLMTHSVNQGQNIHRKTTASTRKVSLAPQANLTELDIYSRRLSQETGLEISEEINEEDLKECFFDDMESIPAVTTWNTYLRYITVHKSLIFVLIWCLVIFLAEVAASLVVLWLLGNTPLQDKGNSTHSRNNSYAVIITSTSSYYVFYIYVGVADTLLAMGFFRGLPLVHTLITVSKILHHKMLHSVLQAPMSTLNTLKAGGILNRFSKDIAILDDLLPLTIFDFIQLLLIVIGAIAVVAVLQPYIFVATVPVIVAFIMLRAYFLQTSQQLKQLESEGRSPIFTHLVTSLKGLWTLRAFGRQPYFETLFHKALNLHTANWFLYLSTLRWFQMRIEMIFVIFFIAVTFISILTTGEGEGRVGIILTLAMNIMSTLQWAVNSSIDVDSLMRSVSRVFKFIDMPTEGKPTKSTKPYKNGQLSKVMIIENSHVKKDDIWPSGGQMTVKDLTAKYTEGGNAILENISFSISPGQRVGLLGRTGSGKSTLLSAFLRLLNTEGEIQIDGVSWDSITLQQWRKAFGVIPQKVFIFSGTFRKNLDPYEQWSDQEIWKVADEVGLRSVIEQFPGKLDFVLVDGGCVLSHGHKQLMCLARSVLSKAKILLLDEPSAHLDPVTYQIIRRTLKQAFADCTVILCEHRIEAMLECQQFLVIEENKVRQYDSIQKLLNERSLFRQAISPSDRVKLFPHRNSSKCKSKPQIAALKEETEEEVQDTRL

Biological target: T1, wild-type SLC6A14 bearing a C-terminal FLAG tag (UniProt Q9UN76)
T1 sequence: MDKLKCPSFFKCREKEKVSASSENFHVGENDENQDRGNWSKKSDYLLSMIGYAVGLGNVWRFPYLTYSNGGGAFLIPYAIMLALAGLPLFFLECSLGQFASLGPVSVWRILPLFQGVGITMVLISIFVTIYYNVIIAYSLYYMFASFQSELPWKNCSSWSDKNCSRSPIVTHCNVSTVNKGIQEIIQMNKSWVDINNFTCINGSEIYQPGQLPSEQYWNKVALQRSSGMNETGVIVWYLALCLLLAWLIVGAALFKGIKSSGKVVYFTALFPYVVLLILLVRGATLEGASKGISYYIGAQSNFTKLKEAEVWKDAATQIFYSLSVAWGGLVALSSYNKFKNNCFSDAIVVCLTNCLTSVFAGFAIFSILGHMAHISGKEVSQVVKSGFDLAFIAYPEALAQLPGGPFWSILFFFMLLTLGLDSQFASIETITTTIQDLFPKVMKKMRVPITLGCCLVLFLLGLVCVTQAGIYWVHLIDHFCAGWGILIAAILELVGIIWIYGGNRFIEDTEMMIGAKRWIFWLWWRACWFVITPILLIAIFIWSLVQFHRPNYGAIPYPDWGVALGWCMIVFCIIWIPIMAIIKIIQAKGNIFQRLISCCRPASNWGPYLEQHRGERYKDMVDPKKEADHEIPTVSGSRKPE
Assay: co-IP; BHK cells stably expressing F508del-CFTR, transfected with SLC6A14-FLAG or empty vector, overnight at 27°C; lysis in 50 mM EDTA, 150 mM Tris base, 50 mM NaCl, 1% Triton X-100, pH 7.4; IP with anti-FLAG antibody (or anti-CFTR 596 antibody, per the legend) and protein A/G agarose at 4°C; western blot

binding: no binding
Substance: human F508del-CFTR (from UniProt P13569 1-1480)
